Assay results from PubChem BioAssay AID248 (DTP/NCI, 2004).
The list is a part of this screen's results and no random one: its compounds were picked by chemical class. Not every dose and run of a compound is shown. T/C: endpoint of the treated group in % of that of the vehicle group. For survival time, this PubChem deposit counts one and a half times the control or more as active, and values a quarter to a half above the control carry no call in these data; other NCI protocols may use other cut-offs. Schedule codes are those of the source, taken here to give the interval after Q, in days (D) or hours (H), and the number of doses after X. Some T/C values carry the count of animals alive at the toxicity check (mostly the fifth day); where neither a count nor a note follows, no animal had died by that day. Some entries were tested several times; the results are listed from low to high.

Tested on: L1210 leukemia ip in BDF1 mice, survival T/C
Experiment: NCI In Vivo Anticancer Drug Screen. Data for tumor model L1210 Leukemia (intraperitoneal) in B6D2F1 (BDF1) mice
Conditions: T/C endpoint: median survival time, vehicle: saline, higher T/C = longer survival

In the case of `COc1ccc(O)c2c(=O)c3c(OC)cc4c(c3oc12)[C@@H]1C=CO[C@@H]1O4`, the T/C (dose: 4.0 mg/kg/injection, schedule: Q03HX016 (ip)) was 117 % of control, the T/C (dose: 4.0 mg/kg/injection, schedule: Q03HX024 (ip)) was 137 % of control and the T/C (dose: 8.0 mg/kg/injection, schedule: Q01DX009 (ip), evaluated on day 30) was 126 and 150 % of control. The T/C (dose: 8.0 mg/kg/injection, schedule: Q01DX009 (ip), evaluated on day 60) was 130 % of control, the T/C (dose: 8.0 mg/kg/injection, schedule: Q01DX009 (sc)) was 111 % of control [9 of 10 alive] and the T/C (dose: 8.0 mg/kg/injection, schedule: Q03HX008 (ip)) was 121 % of control. The T/C (dose: 8.0 mg/kg/injection, schedule: Q03HX016 (ip)) was 133 % of control, the T/C (dose: 8.0 mg/kg/injection, schedule: Q03HX024 (ip)) was 148 % of control and the T/C (dose: 16.0 mg/kg/injection, schedule: Q01DX009 (ip), evaluated on day 30) was 152 and 164 % of control. The T/C (dose: 16.0 mg/kg/injection, schedule: Q01DX009 (ip), evaluated on day 60) was 137 % of control, the T/C (dose: 16.0 mg/kg/injection, schedule: Q01DX009 (oral)) was 124 % of control and the T/C (dose: 16.0 mg/kg/injection, schedule: Q01DX009 (sc)) was 107 % of control. For the same compound, the T/C (dose: 16.0 mg/kg/injection, schedule: Q03HX008 (ip)) was 124 % of control, the T/C (dose: 16.0 mg/kg/injection, schedule: Q03HX016 (ip)) was 133 % of control and the T/C (dose: 16.0 mg/kg/injection, schedule: Q03HX024 (ip)) was 144 % of control. For the same compound, the T/C (dose: 16.0 mg/kg/injection, schedule: Q04DX003 (ip)) was 103 % of control, the T/C (dose: 32.0 mg/kg/injection, schedule: Q01DX001 (ip)) was 114 % of control and the T/C (dose: 32.0 mg/kg/injection, schedule: Q01DX001 (oral)) was 108 % of control. The T/C (dose: 32.0 mg/kg/injection, schedule: Q01DX001 (sc)) was 101 % of control, the T/C (dose: 32.0 mg/kg/injection, schedule: Q01DX009 (ip), evaluated on day 30) was 136 and 192 % of control and the T/C (dose: 32.0 mg/kg/injection, schedule: Q01DX009 (ip), evaluated on day 60) was 145 % of control. For the same compound, the T/C (dose: 32.0 mg/kg/injection, schedule: Q01DX009 (oral)) was 123 % of control, the T/C (dose: 32.0 mg/kg/injection, schedule: Q01DX009 (sc)) was 122 % of control [9 of 10 alive] and the T/C (dose: 32.0 mg/kg/injection, schedule: Q03HX008 (ip)) was 143 % of control. The T/C (dose: 32.0 mg/kg/injection, schedule: Q03HX016 (ip)) was 158 % of control, the T/C (dose: 32.0 mg/kg/injection, schedule: Q03HX024 (ip)) was 108 % of control [9 of 10 alive] and the T/C (dose: 32.0 mg/kg/injection, schedule: Q04DX003 (ip)) was 121 % of control. For the same compound, the T/C (dose: 32.0 mg/kg/injection, schedule: Q08DX002 (ip)) was 108 % of control, the T/C (dose: 64.0 mg/kg/injection, schedule: Q01DX001 (ip)) was 124 % of control and the T/C (dose: 64.0 mg/kg/injection, schedule: Q01DX001 (oral)) was 105 % of control. The T/C (dose: 64.0 mg/kg/injection, schedule: Q01DX001 (sc)) was 109 % of control, the T/C (dose: 64.0 mg/kg/injection, schedule: Q01DX009 (ip), evaluated on day 30) was 152 and 157 % of control [5 of 6 alive] and the T/C (dose: 64.0 mg/kg/injection, schedule: Q01DX009 (ip), evaluated on day 60) was 121 % of control. For the same compound, the T/C (dose: 64.0 mg/kg/injection, schedule: Q01DX009 (oral)) was 131 % of control, the T/C (dose: 64.0 mg/kg/injection, schedule: Q01DX009 (sc)) was 121 % of control and the T/C (dose: 64.0 mg/kg/injection, schedule: Q03HX008 (ip)) was 131 % of control [9 of 10 alive]. The T/C (dose: 64.0 mg/kg/injection, schedule: Q03HX016 (ip)) was 98 % of control [9 of 10 alive], the T/C (dose: 64.0 mg/kg/injection, schedule: Q04DX003 (ip)) was 126 % of control and the T/C (dose: 64.0 mg/kg/injection, schedule: Q08DX002 (ip)) was 114 % of control. The T/C (dose: 128.0 mg/kg/injection, schedule: Q01DX001 (ip)) was 136 % of control, the T/C (dose: 128.0 mg/kg/injection, schedule: Q01DX001 (oral)) was 104 % of control and the T/C (dose: 128.0 mg/kg/injection, schedule: Q01DX001 (sc)) was 119 % of control. For the same compound, the T/C (dose: 128.0 mg/kg/injection, schedule: Q01DX009 (oral)) was 149 % of control [9 of 10 alive], the T/C (dose: 128.0 mg/kg/injection, schedule: Q01DX009 (sc)) was 143 % of control and the T/C (dose: 128.0 mg/kg/injection, schedule: Q04DX003 (ip)) was 136 % of control. For the same compound, the T/C (dose: 128.0 mg/kg/injection, schedule: Q08DX002 (ip)) was 122 % of control, the T/C (dose: 256.0 mg/kg/injection, schedule: Q01DX001 (ip)) was 147 % of control and the T/C (dose: 256.0 mg/kg/injection, schedule: Q01DX001 (oral)) was 103 % of control. For the same compound, the T/C (dose: 256.0 mg/kg/injection, schedule: Q01DX001 (sc)) was 108 % of control, the T/C (dose: 256.0 mg/kg/injection, schedule: Q01DX009 (oral)) was 139 % of control and the T/C (dose: 256.0 mg/kg/injection, schedule: Q04DX003 (ip)) was 114 % of control. For the same compound, the T/C (dose: 256.0 mg/kg/injection, schedule: Q08DX002 (ip)) was 147 % of control, the T/C (dose: 512.0 mg/kg/injection, schedule: Q01DX001 (ip)) was 158 % of control [9 of 10 alive] and the T/C (dose: 512.0 mg/kg/injection, schedule: Q01DX001 (oral)) was 110 % of control. For the same compound, the T/C (dose: 512.0 mg/kg/injection, schedule: Q01DX001 (sc)) was 104 % of control and the T/C (dose: 512.0 mg/kg/injection, schedule: Q08DX002 (ip)) was 144 % of control.
